Patent US20150185222A1 (TORAY INDUSTRIES, published 2015)
No constants are given. Whether binding was seen depends on the method and setting. Some binding calls cover weakened binding; strength is not graded here.

Legend:
[1] = biological target: dog CAPRIN-1 in dog breast cancer tissues (dog); experiment: immunohistochemical staining of frozen dog breast cancer tissue sections, 10 µg/ml antibody
[2] = biological target: T1, CAPRIN-1 in tumor tissues of transplanted mouse cancer cell lines (mouse) (UniProt Q60865); experiment: immunohistochemical staining of PFA-fixed frozen sections of mouse tumors, 10 µg/ml antibody
T1 sequence (looked up): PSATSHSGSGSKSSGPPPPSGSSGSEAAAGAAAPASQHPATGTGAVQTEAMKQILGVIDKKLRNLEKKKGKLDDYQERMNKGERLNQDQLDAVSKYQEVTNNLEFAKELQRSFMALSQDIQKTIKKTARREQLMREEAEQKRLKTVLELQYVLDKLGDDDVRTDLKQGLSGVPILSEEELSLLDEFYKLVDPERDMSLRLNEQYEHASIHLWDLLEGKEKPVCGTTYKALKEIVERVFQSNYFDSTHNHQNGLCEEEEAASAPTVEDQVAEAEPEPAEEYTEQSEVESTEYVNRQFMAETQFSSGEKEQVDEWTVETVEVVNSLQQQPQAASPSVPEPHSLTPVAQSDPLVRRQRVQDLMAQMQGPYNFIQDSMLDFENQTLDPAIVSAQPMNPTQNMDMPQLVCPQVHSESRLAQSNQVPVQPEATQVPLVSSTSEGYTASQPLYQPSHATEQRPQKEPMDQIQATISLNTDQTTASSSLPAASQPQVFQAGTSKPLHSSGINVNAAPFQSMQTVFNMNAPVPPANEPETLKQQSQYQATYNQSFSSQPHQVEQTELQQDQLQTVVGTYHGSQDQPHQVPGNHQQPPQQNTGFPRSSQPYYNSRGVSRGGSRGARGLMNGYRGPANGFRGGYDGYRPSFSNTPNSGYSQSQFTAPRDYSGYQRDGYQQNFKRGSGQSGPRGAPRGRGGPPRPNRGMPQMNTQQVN

[3] = biological target: T2, polypeptide consisting of the amino acid sequence of SEQ ID NO: 66 (human); experiment: ELISA, polypeptide coupled to Immobilizer Amino plate, culture supernatant of #14, HRP anti-mouse IgG
T2 sequence (peptide): QQPQAASPSVPE

Measured: binding

B1: mouse anti-human CAPRIN-1 monoclonal antibody #14 (antibody, V domains shown)
VH: GGGLVQPGGSMRLSCVASGFTFSNSWFNWVRQSPEKGLEWVAEIRLTSDNYAIYYAESVKGRFTISRDDSKSSVYLQMNNLRAEDTGIYYCTRPETARATFAYWGQGTTVTVSS
VL: DVLMTQTPLSLPVSLGDQASISCRSSQSIVHSNGNTYLEWYLQKPGQSPKVLIYKVFNRFSGVPDRFSGSGSGTDFTLKISRVEAEDLGVYYCFQGSHVPRTFGGGTKLNQTG
binds: all assays above
